Test results as given in patent EP4847032A1, “USE OF PEPTIDE AS THERAPEUTIC AGENT FOR DEGENERATIVE BRAIN DISEASES” (dated 2026).

Assays:
5xFAD mice [1] = assay: Long-term potentiation (LTP) measurement in hippocampus of Alzheimer's disease mouse model; conditions: 100 mg/kg subcutaneous twice per week, 2 months; compared with 5xFAD(Vehicle); Fig. 15
Description: (§1) Specifically, as illustrated in the schematic diagram of Fig. 8, saline or KINE-101 synthesized in < Example 1> at a dose of 100 mg/kg was subcutaneously administered twice per week for a total of 2 months to 4-month-old 5xFAD mice induced by amyloid beta. In addition, normal littermate mice of the 5xFAD mice were used as a normal control group and were subcutaneously administered saline in the same manner.
Specifically, long-term potentiation (LTP) was measured by electrophysiological analysis using the mouse model of Example <4-2>. LTP was determined by comparing the amplitude of population-spikes (pop-spikes) before (baseline) and 25 minutes after application of theta burst stimulation (TBS), which is a short-term high-frequency stimulus. For LTP measurement, the mice were anesthetized, and electrical signals, namely population-spikes (pop-spikes), were induced in the hippocampus of the anesthetized mice (Fig. 15).

5xFAD mice [2] = assay: Elevated Plus Maze behavioral test in Alzheimer's disease mouse model; conditions: 100 mg/kg subcutaneous twice per week, 2 months; compared with 5xFAD(Vehicle); Fig. 12
Description: as §1
After completion of administration, an Elevated Plus Maze behavioral test was performed to evaluate anxiety-related behavior using an elevated cross-shaped maze, as shown in Fig. 9. The Elevated Plus Maze apparatus used in this experiment was designed to be positioned 40 cm above the floor surface, and among the four arms, two opposing arms were configured as closed arms with walls, while the remaining two arms were configured as open arms without walls. […] The duration of stay in each arm was recorded by video for 5 minutes, and anxiety-related behavior was quantitatively compared by analyzing the time spent in the open arms without protective walls (Fig. 12).

[3] = Blood-brain barrier (BBB) permeability in mice, bio-imaging of FITC-labeled peptide; conditions: FITC-labeled KINE-101, 20 mg/kg intravenous (tail vein), 8-week-old male C57BL/6 mice; Fig. 6
Description: Specifically, as illustrated in the schematic diagram of Fig. 5, KINE-101 labeled with fluorescence (FITC) was intravenously administered at 20 mg/kg into the tail vein of 8-week-old male C57BL/6 mice, and fluorescence signals detected in the brain were monitored over time using a bio-imaging system (Fig. 6).

human microglia (hMG) [4] = assay: Intracellular nitric oxide (NO) staining in microglia under an Alzheimer's disease environment; conditions: hMG with 1 µM oligomeric Aβ and 10 ng/mL IFNγ; KINE-101 1, 5, 10, 100 or 500 ng/mL; Fig. 3
Description: (§2) Specifically, as illustrated in the schematic diagram of Fig. 1, an Alzheimer's disease environment, which is the major cause of dementia, was established by treating cultured human microglia (hMG) with 1 µM oligomeric amyloid beta protein (Aβ), known to be a causative factor of Alzheimer's disease, and 10 ng/mL interferon-gamma (IFNγ), an inflammatory substance. Under these conditions, KINE-101 prepared in <Example 1> was treated at concentrations of 1, 5, 10, 100, or 500 ng/mL. After two days, the culture medium was replaced and the same treatment was repeated.
In addition, in order to evaluate the reduction of inflammatory substances by KINE-101, nitric oxide (NO), an inflammatory substance involved in the progression of Alzheimer's disease and present intracellularly, was stained with Difluorofluorescein-FM diacetate, and images were obtained using a fluorescence microscope. The intensity of the fluorescence signal was quantified and analyzed using a software program to confirm the degree of NO reduction induced by KINE-101 (Fig. 3).

5xFAD mice [5] = assay: Object Location Test (OLT) in Alzheimer's disease mouse model; conditions: 100 mg/kg subcutaneous twice per week, 2 months; compared with 5xFAD(Vehicle); Fig. 14
Description: as §1
Further, in order to determine whether spatial memory, which is a representative cognitive impairment observed in Alzheimer's disease patients, was improved, an Object Location Test (OLT) was performed. Similar to NORT, OLT allows experimental animals to explore two objects; however, instead of replacing one object with a novel object, only the location of one of the existing objects is changed, as shown in Fig. 11. This test method evaluates whether exploration time for the new location increases by inducing reorganization of place cells in the hippocampus as a result of object relocation in experimental animals with innate exploratory behavior. A discrimination index was calculated according to the following equation (Fig. 14): Discrimination Index = time spent exploring the relocated object location / (time spent exploring the relocated object location + time spent exploring the unchanged object location).

5xFAD mice [6] = assay: Sharp-wave ripples (SWRs) analysis in hippocampus of Alzheimer's disease mouse model; conditions: 100 mg/kg subcutaneous twice per week, 2 months, compared with 5xFAD(Vehicle)
Description: as §1
In addition, the replay mechanism, which is strengthened for the conversion of place cells into long-term memory, is observed in the form of sequential burst activation of hippocampal neurons when experimental animals cease exploration. Such phenomena are referred to as sharp waves (1-50 Hz) and ripples (125-250 Hz) according to the signal pattern, and collectively designated as sharp-wave ripples (SWRs). In order to determine whether administration of KINE-101 restores spatial memory formation ability in an Alzheimer's disease mouse model, the occurrence frequency and intensity of SWRs were comparatively analyzed. SWRs were determined by continuously measuring electrophysiological signals through electrodes implanted in the hippocampus, followed by measuring the occurrence frequency (events/s) and intensity (µV^2) when signals within predetermined frequency ranges (sharp waves: 1-50 Hz; ripples: 125-250 Hz) exceeded the threshold value (4-fold the standard deviation) (Fig. 16).

5xFAD mice [7] = assay: Novel Object Recognition Test (NORT) in Alzheimer's disease mouse model; conditions: 100 mg/kg subcutaneous twice per week, 2 months; compared with 5xFAD(Vehicle); Fig. 13
Description: as §1
In addition, in order to investigate whether KINE-101 can improve memory-related cognitive impairment, a Novel Object Recognition Test (NORT) was performed to evaluate object recognition memory. NORT is a test method based on the tendency of experimental animals with innate exploratory behaviorto show greater interest in and spend more time investigating novel objects. […] Thereafter, one of the objects was replaced with a novel object, and the time spent by the animals in remembering the previously encountered object and exploring the novel object was measured. In addition, a discrimination index was calculated according to the following equation (Fig. 13): Discrimination Index = time spent exploring the novel object / (time spent exploring the novel object + time spent exploring the familiar object).

5xFAD mice [8] = assay: Amyloid beta protein deposited in brain tissues of Alzheimer's disease mouse model; conditions: 4 weeks, 4-month-old 5xFAD mice, Fig. 7
Description: Specifically, the amyloid beta-induced Alzheimer's disease mouse model, 5xFAD mice, was obtained from Jackson Laboratory. This Alzheimer's disease mouse model is known to overexpress human amyloid beta protein, which undergoes extracellular oligomerization and is ultimately deposited as insoluble protein aggregates, thereby damaging neurons and causing dementia. Accordingly, KINE-101 synthesized in < Example 1> was administered intravenously through the tail vein of 4-month-old 5xFAD mice induced by amyloid beta at doses of 50 or 100 mg/kg, twice per week. After 4 weeks, brain tissues were sectioned into thin slices using a vibratome, and amyloid beta protein was probed using an antibody labeled with fluorescence (FITC dye). Images were obtained using a fluorescence microscope (Fig. 7A), and the amount of amyloid beta protein deposited in the brain tissues was quantified using Cytation5 software (Fig. 7B).

human microglia (hMG) [9] = assay: CD86/CD206 marker staining of microglia cultured under an Alzheimer's disease environment; conditions: hMG with 1 µM oligomeric Aβ and 10 ng/mL IFNγ; KINE-101 1, 5, 10, 100 or 500 ng/mL; Fig. 2
Description: as §2
After an additional two days, in order to investigate whether the state of the microglia had shifted from a pro-inflammatory state (M1) to an anti-inflammatory state (M2), the cells were fixed using a fixative, and stained with antibodies against CD86, a marker of the pro-inflammatory state of microglia, and CD206, a marker of the anti-inflammatory state, followed by staining with fluorescence-labeled secondary antibodies. Images were obtained using a fluorescence microscope, and fluorescence signals were quantified using a software program to compare the degree of transition from the pro-inflammatory state to the anti-inflammatory state induced by KINE-101 (Fig. 2).

human microglia (hMG) [10] = assay: Microglial phagocytosis: intracellularly internalized amyloid beta (pH-sensitive red fluorescence); conditions: hMG with 1 µM oligomeric Aβ and 10 ng/mL IFNγ; KINE-101 1, 5, 10, 100 or 500 ng/mL; Fig. 4
Description: as §2
Further, in order to investigate the degree of enhancement of microglial phagocytosis by KINE-101, intracellularly internalized amyloid beta protein was quantified. […] Red fluorescence images were obtained using a fluorescence microscope and quantified and compared using a software program (Fig. 4).

C57BL/6 mice = assay: Y-maze test in scopolamine-induced dementia mouse model; conditions: scopolamine I.P. 1 mg/kg, Fig. 17C
Source text: Specifically, scopolamine is a competitive antagonist that interferes with the binding of the neurotransmitter acetylcholine to acetylcholine receptors expressed in neurons, and is known to induce cognitive impairment, including learning and memory deficits, when administered to animals. In particular, scopolamine is known to activate microglia, thereby increasing inflammatory cytokines and oxidative stress and causing neuronal damage. In addition, the Y-maze test is a behavioral test designed based on the high exploratory tendency of mice toward novel environments and is used to evaluate working memory in animals (Fig. 17A). Accordingly, as illustrated in the schematic diagram of Fig. 17B, 8-week-old male C57BL/6 mice were divided into four groups, and KINE-101 (experimental group) or PBS (negative control group) was administered to each group by subcutaneous injection twice per week for 2 weeks under the conditions shown in Table 2. Four days later, scopolamine was administered by intraperitoneal injection. Thirty minutes after scopolamine administration, the mice were placed in a Y-shaped maze, and the sequence of movement through each arm during a 5-minute period was recorded. The percentage of spontaneous alternation (% Alternation) was quantified by calculating the number of entries into different arms (Fig. 17C).

With O=C(N[C@@H](CO)C(=O)N1CCC[C@H]1C(=O)N1CCC[C@H]1C(=O)N[C@@H](CO)C(=O)N1CCC[C@H]1C(=O)N1CCC[C@H]1C(=O)N[C@@H](CO)C(=O)N1CCC[C@H]1C(=O)O)[C@@H]1CCCN1 the “LTP (pop-spike amplitude before and 25 minutes after theta burst stimulation)” value (5xFAD mice [1]) was “increased LTP”, the “duration of stay in the open arms” value (5xFAD mice [2]) was “significantly shorter” and the “time after administration at which fluorescence signals were first observed in the brain region” value [3] was 10 s. The “time for which the fluorescence signal in the brain was maintained” value [3] was 2 h, the “time of the strongest fluorescence signal in the brain” value [3] was 10 min and the “NO, an inflammatory substance produced in microglia” value (human microglia (hMG) [4]) was “concentration-dependently reduced”. The “exploration of the relocated object location (OLT)” value (5xFAD mice [5]) was “explored the new location to which the object had been moved for a longer period of time”, the “occurrence frequency of SWRs” value (5xFAD mice [6]; Fig. 16B) was “increased” and the “intensity of SWRs” value (5xFAD mice [6]; Fig. 16C) was “increased”. For the same molecule, the “exploration of the novel object (NORT)” value (5xFAD mice [7]) was “explored the novel object for a longer period of time”, the “amyloid beta protein in the brain tissues” value (5xFAD mice [8]; 50 mg/kg intravenous twice per week) was “somewhat reduced” and the “reduction of amyloid beta protein in the brain tissues” value (5xFAD mice [8]; 100 mg/kg intravenous twice per week) was no less than 60%. For the same molecule, the “CD86, a marker of the pro-inflammatory state of microglia” value (human microglia (hMG) [9]) was “concentration-dependently decreased”, the “CD206, a marker of the anti-inflammatory state” value (human microglia (hMG) [9]) was “increasing” and the “intracellular transport of amyloid beta in microglia” value (human microglia (hMG) [10]) was “increased in a concentration-dependent manner”. For the same molecule, the “spontaneous alternation ratio (% Alternation)” value (C57BL/6 mice; KINE-101 100 mg/kg S.C. twice per week for 2 weeks) was “comparable to that of the positive control group” and the “spontaneous alternation ratio (% Alternation)” value (C57BL/6 mice; KINE-101 50 or 100 mg/kg S.C. twice per week for 2 weeks, versus Vehicle (PBS)) was “statistically significantly increased”.

The structures given here were assigned with low confidence; some may be wrong.
